Some of the results follow. The main result of the screen is listed elsewhere. These columns were measured beside it and carry no call. The list favours compounds with an active or inconclusive main result. The note in brackets gives the kind of curve behind each potency; many fits are weak.
Experiment: qHTS Assay for Lipid Storage Modulators in Drosophila S3 Cells;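 as to cell number change: cells counted by Cell Tracker Red CMTPX staining in the red channel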
Conditions: BODIPY lipid droplet fluorescence, 18-24 h; for cell number change: measured here: cell count max response, cells fed with added oleic acid
Procedure, shortened: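 Laser-scanning cytometry quantifies lipid droplet accumulation (500–530 nm total intensity; droplet/cell object ratio) in oleic acid-fed (400 uM added) Drosophila S3 cells treated with a concentration series. 20 uM Triacsin C defined 100% inhibition.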

[1] = measured here: lipid fluorescence (Fed channel) AC50, cells fed with added oleic acid
[2] = measured here: cell number channel AC50, cells fed with added oleic acid

For `COc1ccccc1-n1c(C)cc(/C=C2/C(=N)N3C(=NC2=O)SN=C3S(C)(=O)=O)c1C`, which cell number change is on record?
The cell number change was 27.7%.

What about the AC50 [1] of the same compound?
The AC50 was 3.66 µM [rising, full curve, poor fit].

For `CCOc1cc(C)c(Cl)cc1S(=O)(=O)n1cnc2ccccc21`, which cell number change is on record?
Its cell number change is -36.8%.

And the AC50 [2]?
Its AC50 is 29.1 µM [falling, single point].

For `CNC(=O)c1c(NC(=O)CS(=O)(=O)c2ccc(F)cc2)sc(C)c1C`, which cell number change is on record?
The cell number change was 39.8%.

What about the AC50 [2] of the same compound?
Its AC50 is 29.1 µM [rising, single point].

Which cell number change does the source give for `O=C(NN1C(=O)NC2(CCCCC2)C1=O)c1ccc(-c2ccccc2Cl)o1` here?
Its cell number change is -15%.

What about the AC50 [1] of the same compound?
The AC50 was 0.00517 µM [falling, full curve, poor fit].

With `Cc1nc([N+](=O)[O-])cn1-c1nc2ccccn2c1[N+](=O)[O-]` as the compound, how does the cell number change read?
The cell number change was 31.6%.

And the AC50 [2]?
Its AC50 is 1.3 µM [rising, full curve, poor fit].

With `O=C1OC(c2ccc3c(c2)OCO3)N(C(=O)c2ccc(Cl)c(Cl)c2)c2ccccc21` (stereo not given) as the compound, how does the cell number change read?
The cell number change was 21.3%.

What about the AC50 [1] of the same compound?
Its AC50 is 2.06 µM [rising, partial curve].

Which results are given for `COc1ccc(C(=O)N/C(=C\c2cn(C)c3ccccc23)C(=O)NCCN2CCOCC2)cc1OC`?
cell number change: 13.7%; AC50 [1]: 7.31 µM [falling, partial curve]

What does the source list for `CC(C)(CO)NC(=O)C(c1ccccc1)c1ccccc1`?
cell number change: -114%; AC50 [2]: 23.1 µM [falling, partial curve]; AC50 [1]: 23.1 µM [falling, partial curve]

Which cell number change does the source give for `O=C(Cc1c(F)cccc1Cl)Nc1ccncc1` here?
The cell number change was -22.5%.

And the AC50 [2]?
The AC50 was 0.731 µM [falling, full curve].

And the AC50 [1]?
Its AC50 is 6.51 µM [falling, single point].

For `CC(C)(C)NC(=O)C(c1c[nH]c2ccccc12)N(C(=O)Cn1nnc(-c2ccc(F)cc2)n1)c1cccc(O)c1` (stereo not given), which cell number change is on record?
Its cell number change is -5.62%.

And the AC50 [2]?
The AC50 was 6.51 µM [rising, single point].

What about the AC50 [1] of the same compound?
The AC50 was 32.6 µM [falling, single point].

What does the source list for `Cc1ccc(NC(=O)CCC(=O)NNS(=O)(=O)c2ccccc2)cc1C`?
cell number change: -18%; AC50 [1]: 5.17 µM [falling, partial curve]

What does the source list for `C=C(C)COc1ccc(-c2nc(N)ncc2-c2ccc(Cl)cc2)c(O)c1`?
cell number change: -66%; AC50 [2]: 29.1 µM [falling, single point]; AC50 [1]: 29.1 µM [falling, single point]

Which cell number change does the source give for `Cc1cc(S(=O)(=O)NCCCN2CCOCC2)c(C)cc1Cl` here?
Its cell number change is 19.7%.

What does the source list for `Cc1ccc(-c2nnc(SCC(=O)Nc3ccccc3N3CCOCC3)o2)cc1`?
cell number change: 39.6%; AC50 [2]: 0.731 µM [rising, full curve, poor fit]; AC50 [1]: 0.116 µM [rising, full curve, poor fit]

Which results are given for `O=C(NCC1CCCO1)C1c2ccccc2C(=O)N1C1CCCCCCC1` (stereo not given)?
cell number change: -27.6%; AC50 [1]: 29.1 µM [falling, single point]

Which cell number change does the source give for `COc1ccc(NC(=O)N2CCCCCC2)cc1OC` here?
Its cell number change is 28.7%.

What does the source list for `Oc1ccccc1/C=N/c1c(-c2ccco2)nc2ccccn12`?
cell number change: 6.23%; AC50 [1]: 5.17 µM [rising, partial curve]

Which cell number change does the source give for `CCCCc1ccc(NC(=O)Nc2c(C)n(C)n(-c3ccccc3)c2=O)cc1` here?
The cell number change was 31%.

What does the source list for `CC1CC2(C)CC(C)C1(COC(=O)Nc1ccccc1)CO2` (stereo not given)?
cell number change: 9.32%; AC50 [1]: 0.00461 µM [rising, full curve, poor fit]

Which cell number change does the source give for `COc1cc(Cl)c(C)cc1NC(=O)COC(=O)/C=C/c1c(C)nn(C2CCS(=O)(=O)C2)c1Cl` (stereo not given) here?
Its cell number change is 4.83%.

And the AC50 [1]?
Its AC50 is 4.11 µM [falling, single point].

What does the source list for `COc1ccc2c(c1)cc(C(=O)O)n2C`?
cell number change: -9.92%; AC50 [1]: 2.91 µM [falling, partial curve]

With `CCOC(=O)Cn1c(=O)cc(C)c2cccc(C)c21` as the compound, how does the cell number change read?
The cell number change was 8.46%.

And the AC50 [1]?
Its AC50 is 2.06 µM [falling, partial curve].

Which results are given for `Cc1ccc(NC(=O)CSc2ccc(C(N)=O)cc2[N+](=O)[O-])cc1C`?
cell number change: 53.1%; AC50 [1]: 35.5 µM [rising, single point]

With `Nc1cc(-c2ccc(Cl)cc2)nn1S(=O)(=O)c1ccc(Cl)cc1` as the compound, how does the cell number change read?
The cell number change was 45.7%.

What about the AC50 [2] of the same compound?
Its AC50 is 4.11 µM [rising, full curve].

And the AC50 [1]?
Its AC50 is 14.6 µM [falling, partial curve].

Which cell number change does the source give for `COc1cc(C(=O)Oc2cccc(/C=N/NC(=O)c3cccnc3)c2)cc(OC)c1OC` here?
Its cell number change is 40.8%.

What about the AC50 [2] of the same compound?
The AC50 was 2.06 µM [rising, partial curve, poor fit].

With `CC1(C)Cc2cccc(OCC(=O)OCC(=O)NCc3ccccc3)c2O1` as the compound, how does the cell number change read?
The cell number change was -10.8%.

For `Clc1ccc(-c2nnc3c4ccccc4nc(N4CCOCC4)n23)cc1Cl`, which cell number change is on record?
Its cell number change is -3.45%.

Which cell number change does the source give for `CCCCNC(=O)c1cc(-c2ccc(OC)c(OC)c2)on1` here?
Its cell number change is -18.8%.

And the AC50 [1]?
Its AC50 is 0.461 µM [rising, full curve, poor fit].

Which results are given for `CCCc1cc(=O)oc2cc(OCC(=O)N3CCC(C(N)=O)CC3)ccc12`?
cell number change: 12.5%; AC50 [1]: 29.1 µM [rising, single point]

What does the source list for `COC(=O)c1cc(NC(=S)NC(=O)c2ccccc2)ccc1N1CCOCC1`?
cell number change: 8.8%; AC50 [2]: 1.3 µM [rising, full curve, poor fit]; AC50 [1]: 0.92 µM [rising, full curve, poor fit]

Which cell number change does the source give for `COCC(C)n1c(C)cc(C(=O)Cn2nc(C(=O)O)c3ccccc3c2=O)c1C` (stereo not given) here?
The cell number change was 18.5%.

With `COc1ccc(NS(=O)(=O)c2ccc(C)c(C(=O)NCC(c3ccco3)N(C)C)c2)cc1` (stereo not given) as the compound, how does the cell number change read?
The cell number change was 8.94%.

What about the AC50 [1] of the same compound?
Its AC50 is 6.51 µM [rising, single point].

With `CCOc1ccc(NC(=O)CN(C)C(=O)CCCc2nc3ccccc3c(=O)[nH]2)cc1OCC` as the compound, how does the cell number change read?
The cell number change was 28.5%.

And the AC50 [1]?
Its AC50 is 8.2 µM [rising, partial curve, poor fit].

What does the source list for `CCOCCCn1c(C)nc2c(c1=O)c1nc3ccccc3nc1n2CCC1=CCCCC1`?
cell number change: -38.9%; AC50 [2]: 29.1 µM [falling, single point]; AC50 [1]: 20.6 µM [rising, single point]

Which cell number change does the source give for `CC(C)CNC(=O)COC(=O)CCC(=O)c1ccc(F)cc1` here?
Its cell number change is -14.8%.

What about the AC50 [2] of the same compound?
The AC50 was 0.231 µM [falling, full curve].

What about the AC50 [1] of the same compound?
The AC50 was 0.231 µM [falling, full curve, poor fit].

With `Cc1ccc(-n2c(Cn3c(C)nc4ccccc43)n[nH]c2=S)cc1` as the compound, how does the cell number change read?
The cell number change was 19.5%.

And the AC50 [1]?
The AC50 was 0.82 µM [rising, full curve, poor fit].

Reference: PubChem BioAssay AID2685 (National Center for Advancing Translational Sciences (NCATS), 2010)
